Data as given in PubChem BioAssay AID1259425 (University of Nebraska Medical Center, 2018)
Here is a random part of about 14,000 reagents. Not given: the time to read-out.

Purpose: 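Seek colon cancer weak points whose silencing resembles KSR1 loss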 (primary screen)
Cell system: HCT116 human colon cancer cells
Knock-down reagent: siRNA pool against human genes, 50 nM siRNA
Read-out: 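After 50 nM siRNA pool, branched-DNA assay measures six marker transcripts per well, minus blank, normalised to the geometric mean of two housekeeping transcripts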
Reading the numbers: BNIP3L mRNA: higher = more BNIP3L transcript after knockdown; NDRG1 mRNA: higher = more NDRG1 transcript after knockdown; BNIP3 mRNA: higher = more BNIP3 transcript after knockdown; ALDOC mRNA: higher = more ALDOC transcript after knockdown; ACSL5 mRNA: higher = more ACSL5 transcript after knockdown

| gene | BNIP3L mRNA, set 1 | NDRG1 mRNA, set 1 | BNIP3 mRNA, set 1 | ALDOC mRNA, set 1 | ACSL5 mRNA, set 1 |
| --- | --- | --- | --- | --- | --- |
| CST3 (cystatin C) | 0.123 | 0.311 | 0.243 | 0.0188 | 0.289 |
| EIF2AK4 (eukaryotic translation initiation factor 2 alpha kinase 4) | 0.159 | 0.214 | 0.453 | 0.0147 | 0.267 |
| PAX8 (paired box 8) | 0.0603 | 0.745 | 0.367 | 0.00568 | 0.128 |
| SSPN (sarcospan) | 0.195 | 0.12 | 0.543 | 0.0487 | 0.198 |
| CNNM2 | 0.0884 | 0.119 | 0.434 | 0.0146 | 0.14 |
| OTX1 (orthodenticle homeobox 1) | 0.122 | 0.123 | 0.265 | 0.00834 | 0.268 |
| LILRB1 (leukocyte immunoglobulin like receptor B1) | 0.0782 | 0.0448 | 0.205 | 0.0263 | 0.0577 |
| HNRNPA1 (heterogeneous nuclear ribonucleoprotein A1) | 0.179 | 1.18 | 0.331 | 0.013 | 0.228 |
| MC2R (melanocortin 2 receptor) | 0.171 | 0.206 | 0.328 | 0.0579 | 0.2 |
| LINC00467 (long independently transcribed non-coding RNA 467) | 0.102 | 0.24 | 0.319 | 0.0469 | 0.231 |
| PIM2 (Pim-2 proto-oncogene, serine/threonine kinase) | 0.104 | 0.148 | 0.286 | 0.0105 | 0.191 |
| DERA (deoxyribose-phosphate aldolase) | 0.162 | 0.13 | 0.429 | 0.0726 | 0.302 |
| MANF (mesencephalic astrocyte derived neurotrophic factor) | 0.0652 | 0.234 | 0.175 | 0.0159 | 0.0563 |
| PRH1 (proline rich protein HaeIII subfamily 1) | 0.157 | 0.477 | 0.39 | 0.0136 | 0.229 |
| CALB1 (calbindin 1) | 0.233 | 0.217 | 0.33 | 0.0305 | 0.124 |
| CD207 (CD207 molecule) | 0.197 | 0.154 | 0.229 | 0.0501 | 0.132 |
| KMT5A (lysine methyltransferase 5A) | 0.132 | 0.209 | 0.213 | 0.0138 | 0.137 |
| CBX8 (chromobox 8) | 0.0599 | 0.0358 | 0.235 | 0.0159 | 0.0872 |
| MYO9A (myosin IXA) | 0.0853 | 0.485 | 0.279 | 0.0445 | 0.331 |
| UMPS (uridine monophosphate synthetase) | 0.0915 | 0.3 | 0.341 | 0.0456 | 0.183 |
| NADSYN1 (NAD synthetase 1) | 0.145 | 0.158 | 0.226 | 0.078 | 0.218 |
| ZNF331 (zinc finger protein 331) | 0.0973 | 0.188 | 0.344 | 0.034 | 0.164 |
| NPTX1 (neuronal pentraxin 1) | 0.0512 | 0.143 | 0.228 | 0.0126 | 0.142 |
| SLC25A39 | 0.166 | 0.247 | 0.337 | 0.0214 | 0.229 |
| PCDHA1 (protocadherin alpha 1) | 0.141 | 0.189 | 0.582 | 0.0323 | 0.362 |
| CLK3 (CDC like kinase 3) | 0.0785 | 0.226 | 0.314 | 0.0116 | 0.306 |
| CHAF1A (chromatin assembly factor 1 subunit A) | 0.223 | 0.38 | 0.481 | 0.0264 | 0.199 |
| DCT (dopachrome tautomerase) | 0.065 | 0.195 | 0.325 | 0.0323 | 0.268 |
| MNDA (myeloid cell nuclear differentiation antigen) | 0.108 | 0.103 | 0.253 | 0.016 | 0.288 |
| SYDE2 (synapse defective Rho GTPase homolog 2) | 0.133 | 0.265 | 0.273 | 0.0606 | 0.494 |
| TEX12 (testis expressed 12) | 0.266 | 0.193 | 0.687 | 0.125 | 0.205 |
| SUCLA2 (succinate-CoA ligase ADP-forming subunit beta) | 0.0555 | 0.564 | 0.351 | 0.0227 | 0.304 |
| PCDHGB6 (protocadherin gamma subfamily B, 6) | 0.0708 | 0.248 | 0.314 | 0.0321 | 0.241 |
| MAN2B1 (mannosidase alpha class 2B member 1) | 0.11 | 0.152 | 0.201 | 0.0346 | 0.0944 |
| SIGIRR (single Ig and TIR domain containing) | 0.074 | 0.0568 | 0.313 | 0.0233 | 0.171 |
| RETN (resistin) | 0.11 | 0.138 | 0.179 | 0.0169 | 0.159 |
| FANCG (FA complementation group G) | 0.1 | 0.147 | 0.265 | 0.00502 | 0.159 |
| ANKRD50 (ankyrin repeat domain 50) | 0.143 | 0.189 | 0.283 | 0.0256 | 0.259 |
| GASK1B (golgi associated kinase 1B) | 0.0843 | 0.201 | 0.202 | 0.0172 | 0.152 |
| TEX15 (testis expressed 15, meiosis and synapsis associated) | 0.13 | 0.258 | 0.364 | 0.0486 | 0.243 |
| RRBP1 (ribosome binding protein 1) | 0.137 | 0.237 | 0.324 | 0.0378 | 0.148 |
| C14orf119 (chromosome 14 open reading frame 119) | 0.206 | 0.238 | 0.524 | 0.0549 | 0.121 |
| MRPL24 (mitochondrial ribosomal protein L24) | 0.0719 | 0.213 | 0.341 | 0.0396 | 0.178 |
| PDPN (podoplanin) | 0.593 | 2 | 0.629 | 0.153 | 0.506 |
| PPT2 (palmitoyl-protein thioesterase 2) | 0.152 | 0.276 | 0.333 | 0.0439 | 0.282 |
| TLX3 (T cell leukemia homeobox 3) | 0.169 | 0.332 | 0.497 | 0.0765 | 0.324 |
| MATN3 (matrilin 3) | 0.0748 | 0.167 | 0.288 | 0.0312 | 0.114 |
| RGS8 (regulator of G protein signaling 8) | 0.128 | 0.847 | 0.382 | 0.0648 | 0.24 |
| DUSP15 (dual specificity phosphatase 15) | 0.0545 | 0.0711 | 0.224 | 0.0199 | 0.14 |
| IFNA10 (interferon alpha 10) | 0.0793 | 0.136 | 0.296 | 0.0169 | 0.118 |
